Measured values published in PMC8685902, “Perception of structurally distinct effectors by the integrated WRKY domain of a plant immune receptor”.
Numbering of substitutions follows the chain as printed. In names and notes the source's numbering stands. These are yes or no findings as the source states them, for the method shown. Binding seen in cells or lysates may run through a third protein. Binding calls can cover weak binding; strength is not graded here. Sequences can lack the tags named with a protein.

B1: full-length AvrRps4 N171A with C-terminal 4xmyc tag (protein, UniProt Q52432 1-220)
chain: MTRISTSSVNSSFSYSAPAEEAQNRVSSAPTNSSPPGTTTAVAQASEGQKKPGAVLSMHAQRLRQLCESSSHQYRQNALLAKSFDAQRLDINTQAGPSNSPHLNALNKLQQRDFKPAAGGLEIPFTPKSLLGGGKRVYQIGSSSRDVQVCPRGAGAALRQEIEDKQLMVNALTDELQDAIDEANPAEIANTSQQLRHARADLADLQRRFAVLRNEDRRIN
B2: full-length AvrRps4 Q194A with C-terminal 4xmyc tag (protein, UniProt Q52432 1-220)
chain: B1 chain with A171N, Q194A
B3: full-length AvrRps4 D164A with C-terminal 4xmyc tag (protein, UniProt Q52432 1-220)
chain: B1 chain with D164A, A171N
B4: full-length AvrRps4 E175A with C-terminal 4xmyc tag (protein, UniProt Q52432 1-220)
chain: B1 chain with A171N, E175A
B5: full-length AvrRps4 E187A with C-terminal 4xmyc tag (protein, UniProt Q52432 1-220)
chain: B1 chain with A171N, E187A
B6: full-length AvrRps4 EE/AA (E175A/E187A) with C-terminal 4xmyc tag (protein, UniProt Q52432 1-220)
chain: B1 chain with A171N, E175A, E187A

Biological target: RRS1-R^WRKY+83 with C-terminal 6xHis/3xFLAG tag (Arabidopsis)
Assay: co-IP; transient coexpression in N. benthamiana; RRS1-R^WRKY+83 (6xHis/3xFLAG) precipitated with anti-FLAG magnetic beads, AvrRps4 variants (4xmyc) detected by blot

| Binder | binding |
| --- | --- |
| B1 | binds |
| B2 | binds weakly |
| B3 | no binding |
| B4 | no binding |
| B5 | no binding |
| B6 | no binding |
